In paper doi:10.1101/617845:
Results are given in words; binding and its absence hold for the method and conditions named. Binding seen in cells or lysates may run through a third protein. Some entries that bind do so weakly or less than the wild type.

The chains behind the UniProt entries cited, without tags or fusion partners.
UniProt P70452: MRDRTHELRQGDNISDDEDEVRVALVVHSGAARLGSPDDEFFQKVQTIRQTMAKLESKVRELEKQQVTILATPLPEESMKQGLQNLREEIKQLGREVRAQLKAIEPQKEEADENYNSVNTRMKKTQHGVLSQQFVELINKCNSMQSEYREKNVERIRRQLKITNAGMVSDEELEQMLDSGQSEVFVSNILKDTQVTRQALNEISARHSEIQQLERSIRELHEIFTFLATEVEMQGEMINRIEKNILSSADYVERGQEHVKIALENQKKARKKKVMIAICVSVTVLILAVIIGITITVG

Biological target: T1, tomosyn (syntaxin-1-binding protein 5, STXBP5) (mouse (endogenous in cultured cortical neurons)) (UniProt Q8K400)
T1 sequence: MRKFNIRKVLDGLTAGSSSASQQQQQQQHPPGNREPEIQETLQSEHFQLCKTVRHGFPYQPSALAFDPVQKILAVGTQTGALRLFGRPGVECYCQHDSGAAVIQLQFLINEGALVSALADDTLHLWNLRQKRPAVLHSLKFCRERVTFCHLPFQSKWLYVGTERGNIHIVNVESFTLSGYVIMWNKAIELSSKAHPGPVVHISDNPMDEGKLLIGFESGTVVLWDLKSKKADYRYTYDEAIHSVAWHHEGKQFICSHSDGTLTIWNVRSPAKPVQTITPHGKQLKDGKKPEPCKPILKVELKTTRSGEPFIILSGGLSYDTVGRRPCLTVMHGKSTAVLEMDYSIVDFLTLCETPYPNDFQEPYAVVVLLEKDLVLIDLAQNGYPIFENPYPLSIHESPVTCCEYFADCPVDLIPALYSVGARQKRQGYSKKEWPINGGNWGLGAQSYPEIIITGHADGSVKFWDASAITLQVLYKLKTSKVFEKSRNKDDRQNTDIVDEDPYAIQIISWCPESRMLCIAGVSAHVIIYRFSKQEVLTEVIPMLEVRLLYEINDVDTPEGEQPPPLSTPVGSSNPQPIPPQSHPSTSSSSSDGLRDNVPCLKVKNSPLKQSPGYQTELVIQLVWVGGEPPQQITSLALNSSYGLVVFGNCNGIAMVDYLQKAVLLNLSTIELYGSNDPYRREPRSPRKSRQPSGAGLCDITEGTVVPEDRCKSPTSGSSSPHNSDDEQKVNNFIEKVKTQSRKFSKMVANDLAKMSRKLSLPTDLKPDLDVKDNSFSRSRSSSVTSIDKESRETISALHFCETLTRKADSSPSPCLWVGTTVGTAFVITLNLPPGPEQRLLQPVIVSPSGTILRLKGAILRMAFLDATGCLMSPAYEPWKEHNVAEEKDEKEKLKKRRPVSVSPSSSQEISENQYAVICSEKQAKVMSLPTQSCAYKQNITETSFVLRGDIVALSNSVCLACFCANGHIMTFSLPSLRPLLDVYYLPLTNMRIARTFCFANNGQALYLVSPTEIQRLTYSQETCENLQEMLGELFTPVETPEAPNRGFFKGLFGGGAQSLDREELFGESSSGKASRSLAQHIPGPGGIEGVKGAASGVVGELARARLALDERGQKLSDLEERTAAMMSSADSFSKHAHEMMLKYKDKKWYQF
Assay: co-IP

binding: binds
Substance: syntaxin-4 (from UniProt P70452 1-298)
